From patent publication US10064954B2, “Polymer-cyclodextrin-lipid conjugates” (priority 2015, dated 2018)

Assay: Solubility of marketed Drug Products: cyclodextrin to drug ratio
Details: CD = sulfobutyl ether β-cyclodextrin

Q: With `CC(=O)[C@H]1CC[C@H]2[C@@H]3CC[C@H]4C[C@H](O)CC[C@]4(C)[C@H]3C(=O)C[C@]12C` [Alphaxalone] as the molecule, how does the “CD/D (mol/mol)” value read?
A: 2.1 mol/mol
